Experimental data: paper PMC3689657
Results are given in words; binding and its absence hold for the method and conditions named. Where a sequence is shown, tags or fusion partners need not be part of it.

Target: Pseudomonas aeruginosa UDP-N-acetylglucosamine-enolpyruvate reductase (MurB) (Pseudomonas aeruginosa PAO1) (UniProt Q9HZM7)
Experiment: SEC; purified PaMurB on Superdex 200 10/300, 25 mM Tris-Cl pH 8.0, 150 mM NaCl; single peak at 16.5 ml, mass from a calibration curve; both purified

B1: Pseudomonas aeruginosa UDP-N-acetylglucosamine-enolpyruvate reductase (MurB) (enzyme, UniProt Q9HZM7 1-339)
chain: SMSLELQEHCSLKPYNTFGIDVRARLLAHARDEADVREALALARERGLPLLVIGGGSNLLLTRDVEALVLRMASQGRRIVSDAADSVLVEAEAGEAWDPFVQWSLERGLAGLENLSLIPGTVGAAPMQNIGAYGVELKDVFDSLTALDRQDGTLREFDRQACRFGYRDSLFKQEPDRWLILRVRLRLTRRERLHLDYGPVRQRLEEEGIASPTARDVSRVICAIRREKLPDPAVLGNAGSFFKNPLVDATQAERLRQAFPDLVGYPQADGRLKLAAGWLIDKGGWKGFRDGPVGVHAQQALVLVNHGGATGAQVRALAERIQEDVRRRFGVELEPEPNLY
With B1 the binding was “no binding”.
